The supplement of paper PMC11438910
This is one part of the list. The signal is at background level for most entries.

How the values were obtained:
Assay in all cases: fluorescence intensity of antibody binding to polysaccharide-coupled beads; higher = stronger binding
[1] = biological target: pneumococcal polysaccharide Pn13
[2] = biological target: pneumococcal polysaccharide Pn14
[3] = biological target: pneumococcal polysaccharide Pn15A
[4] = biological target: pneumococcal polysaccharide Pn15B
[5] = biological target: pneumococcal polysaccharide Pn15C
[6] = biological target: pneumococcal polysaccharide Pn15F
[7] = biological target: pneumococcal polysaccharide Pn16A
[8] = biological target: pneumococcal polysaccharide Pn16F
[9] = biological target: pneumococcal polysaccharide Pn17A
[10] = biological target: pneumococcal polysaccharide Pn17F
[11] = biological target: pneumococcal polysaccharide Pn18A
[12] = biological target: pneumococcal polysaccharide Pn18B
[13] = antibody concentration 0.1 ng/mL
[14] = antibody concentration 0.534724 ng/mL
[15] = antibody concentration 2.8593 ng/mL
[16] = antibody concentration 15.2894 ng/mL
[17] = antibody concentration 81.7561 ng/mL
[18] = antibody concentration 437.17 ng/mL
[19] = antibody concentration 2337.65 ng/mL
[20] = antibody concentration 12500 ng/mL

B1: 3S41.2 (protein)
chain 1: EVQLVESGGGLVQPGGSLRLSCATSGFTFRNYWMYWFRQAPGKGLDWVSSISDSSSNTFYSDSVKGRFTISRDNAKNTLYLQMNSLRAEDTAVYYCARRPIAAATGVYWYFDLWGPGTPITVSS
chain 2: QAALTQPPSMSGSPGQSVTISCTGTSSDIGGYNRVSWYQQYPGKAPKLMIYEVSKRPSGVSDRFSGSKSGNTAALTISGLQAADEADYYCSSYAGSYTFVLFGGGTRLTVL
fluorescence intensity [1, 13]: 19 MFI | fluorescence intensity [1, 14]: 18 MFI | fluorescence intensity [1, 15]: 19.5 MFI | fluorescence intensity [1, 16]: 19 MFI | fluorescence intensity [1, 17]: 19.5 MFI | fluorescence intensity [1, 18]: 18.5 MFI | fluorescence intensity [1, 19]: 26 MFI | fluorescence intensity [1, 20]: 62.2 MFI | fluorescence intensity [2, 13]: 14.5 MFI | fluorescence intensity [2, 14]: 15.5 MFI | fluorescence intensity [2, 15]: 15.5 MFI | fluorescence intensity [2, 16]: 14.2 MFI | fluorescence intensity [2, 17]: 16.5 MFI | fluorescence intensity [2, 18]: 19.8 MFI | fluorescence intensity [2, 19]: 63.2 MFI | fluorescence intensity [2, 20]: 544 MFI | fluorescence intensity [3, 13]: 13 MFI | fluorescence intensity [3, 14]: 12.5 MFI | fluorescence intensity [3, 15]: 12 MFI | fluorescence intensity [3, 16]: 12 MFI | fluorescence intensity [3, 17]: 12.8 MFI | fluorescence intensity [3, 18]: 13 MFI | fluorescence intensity [3, 19]: 14.5 MFI | fluorescence intensity [3, 20]: 20.5 MFI | fluorescence intensity [4, 13]: 18.8 MFI | fluorescence intensity [4, 14]: 19.8 MFI | fluorescence intensity [4, 15]: 18.5 MFI | fluorescence intensity [4, 16]: 18.5 MFI | fluorescence intensity [4, 17]: 18 MFI | fluorescence intensity [4, 18]: 20.8 MFI | fluorescence intensity [4, 19]: 29 MFI | fluorescence intensity [4, 20]: 41.5 MFI | fluorescence intensity [5, 13]: 18 MFI | fluorescence intensity [5, 14]: 18.2 MFI | fluorescence intensity [5, 15]: 18 MFI | fluorescence intensity [5, 16]: 16.2 MFI | fluorescence intensity [5, 17]: 18 MFI | fluorescence intensity [5, 18]: 18 MFI | fluorescence intensity [5, 19]: 20 MFI | fluorescence intensity [5, 20]: 31 MFI | fluorescence intensity [6, 13]: 17.5 MFI | fluorescence intensity [6, 14]: 17 MFI | fluorescence intensity [6, 15]: 18.5 MFI | fluorescence intensity [6, 16]: 17.2 MFI | fluorescence intensity [6, 17]: 16.8 MFI | fluorescence intensity [6, 18]: 18 MFI | fluorescence intensity [6, 19]: 22 MFI | fluorescence intensity [6, 20]: 38.2 MFI | fluorescence intensity [7, 13]: 15 MFI | fluorescence intensity [7, 14]: 14.5 MFI | fluorescence intensity [7, 15]: 13.5 MFI | fluorescence intensity [7, 16]: 14.8 MFI | fluorescence intensity [7, 17]: 15 MFI | fluorescence intensity [7, 18]: 15 MFI | fluorescence intensity [7, 19]: 18.5 MFI | fluorescence intensity [7, 20]: 33.5 MFI | fluorescence intensity [8, 13]: 24.5 MFI | fluorescence intensity [8, 14]: 24.5 MFI | fluorescence intensity [8, 15]: 23 MFI | fluorescence intensity [8, 16]: 24 MFI | fluorescence intensity [8, 17]: 26 MFI | fluorescence intensity [8, 18]: 26.5 MFI | fluorescence intensity [8, 19]: 30.5 MFI | fluorescence intensity [8, 20]: 44.5 MFI | fluorescence intensity [9, 13]: 21.2 MFI | fluorescence intensity [9, 14]: 21 MFI | fluorescence intensity [9, 15]: 20.5 MFI | fluorescence intensity [9, 16]: 21 MFI | fluorescence intensity [9, 17]: 21.5 MFI | fluorescence intensity [9, 18]: 21 MFI | fluorescence intensity [9, 19]: 23.2 MFI | fluorescence intensity [9, 20]: 30.5 MFI | fluorescence intensity [10, 13]: 26.5 MFI | fluorescence intensity [10, 14]: 26 MFI | fluorescence intensity [10, 15]: 26 MFI | fluorescence intensity [10, 16]: 27.5 MFI | fluorescence intensity [10, 17]: 26.5 MFI | fluorescence intensity [10, 18]: 27.5 MFI | fluorescence intensity [10, 19]: 28 MFI | fluorescence intensity [10, 20]: 33.5 MFI | fluorescence intensity [11, 13]: 24.5 MFI | fluorescence intensity [11, 14]: 23.5 MFI | fluorescence intensity [11, 15]: 25.5 MFI | fluorescence intensity [11, 16]: 24.5 MFI | fluorescence intensity [11, 17]: 24 MFI | fluorescence intensity [11, 18]: 24.5 MFI | fluorescence intensity [11, 19]: 26.5 MFI | fluorescence intensity [11, 20]: 36.5 MFI | fluorescence intensity [12, 13]: 30.5 MFI | fluorescence intensity [12, 14]: 30 MFI
